Reference: patent US11744819B2, “Antibiotic cannabinoid-terpene formulations” (priority 2019, dated 2023)
Some results were stated once for a whole list of compounds, not compound by compound. For some assays here: For at least one compound, name, drawing or mass did not settle the structure.

Key:
[1] = tested on: E. faecium strains 3303, 69C6, 58C9 and 55A6; test: Kill curves (CFU by serial dilution); assay type: cell-based, Enterococcus faecium; conditions: in the presence of ½×MIC of the cannabinoid; strains 58C9 and 55A6; ⅛×MIC
[2] = tested on: E. faecium 3303; assay type: cell-based, Enterococcus faecium; conditions: terpene either alone or in combination; no detectable activity; data not shown
Text: In therapeutic applications, synergy between active ingredients occurs when an observed combined therapeutic effect is greater than the sum of therapeutic effects of individual active ingredients, or a new therapeutic effect is produced that the active ingredients could not produce alone. […] In this context, the enhancement of therapeutic effect may take the form of increased efficacy or potency and/or decreased adverse effects. The synergistic effect may be mediated in whole or in part by the pharmacokinetics and/or pharmacodynamics of the active ingredients in a subject, so that the amount and proportion of the ingredients in the formulation may be synergistic in vivo. This in vivo synergy may be effected with a formulation that includes the active ingredients in amounts and proportions that are also synergistic in in vitro assays of efficacy. […] A numeric quantification of synergy is often expressed as a fractional inhibitory concentration index (FICI), which represents the sum of the fractional inhibitory concentrations (FICs) of each drug tested, where the FIC is determined for each drug by dividing the minimum inhibitory concentration (MIC, the lowest concentration of the drug which prevents visible growth of the bacterium in a standard in vitro assay-standard colorometric assay based on resazurin) of each drug when used in combination by the MIC of each drug when used alone. […]

Compound	daptomycin concentration that significantly reduces the CFU at 24 h [1]	MIC [2]
CCCCCc1cc(O)c2c(c1)OC(C)(CCC=C(C)C)C=C2 (centres unmarked) [CBC, cannabichromene]	≤ 1 mg/L	–
C=C(C)[C@@H]1CCC(C)=C[C@H]1c1c(O)cc(CCCCC)cc1O [CBD, cannabidiol, reference compound]	≤ 1 mg/L	–
CCCCCc1cc(O)c(C/C=C(\C)CCC=C(C)C)c(O)c1 [CBG, cannabigerol]	≤ 1 mg/L	–
C=C(C)[C@H]1CC=C(C)CC1 [R-(+) limonene, reference compound]	–	> 32 µg/mL
CC1=CCC2CC1C2(C)C (centres unmarked) [a-pinene, reference compound]	–	> 32 µg/mL
